The target in this data set is Omomyc E425T,E432I,R438Q,R439N (UniProt P01106). Put plainly: EMSA. The settings on record: 2 mM Mg2+.

The chains behind the UniProt entries cited, without tags or fusion partners. Residues count along the entry.
UniProt P01106, 365-454 E425T/E432I/R438Q/R439N: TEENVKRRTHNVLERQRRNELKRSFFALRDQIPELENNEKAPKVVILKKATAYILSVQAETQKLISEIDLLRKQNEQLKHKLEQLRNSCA

Broadly, the Kd is the equilibrium constant for the complex coming apart. Read a high Kd as lower affinity.

For at least one entry, the source does not settle the construct or the ends of the probe.

Regarding “ACCCCACCACGTGGTGCCT (double strand) [E-Box DNA]”, the dissociation constant (Kd) turned out to be 25 nM.

(Values after article doi:10.1101/2024.03.04.583305.)
